The values that follow come from US5888970 (dated 1999).

The series can be described thus: general procedure: Boc solid-phase peptide synthesis; Oxime resin (substitution level=0.96 mmol/g or 0.62 mmol/g, Novabiochem); HBTU, TBTU. The settings on record: conjugation step, TFA salt.

As for “Cyclo-[D-Val-NMeArg-Gly-Asp-Dap(EOE-Mercaptoacetyl)-Cys(Acm)]”, the conjugation yield came out at 90%.
